Data as given in patent publication US20240192215A1.
These are yes or no findings as the source states them, for the method shown.

Key:
[1] = biological target: Chrysochloris asiatica Trx1 (CaTrx1) (Chrysochloris asiatica); test: ELISA on coated antigen
[2] = biological target: Chrysochloris asiatica Trx1 (CaTrx1) (Chrysochloris asiatica); test: ELISA, plate coated with 10ug TRX1(Asiatica)-N-His, anti-mouse HRP (Example 14) [panel B]

B1: monoclonal antibody B264 (antibody, mouse IgG1, kappa, V domains shown)
VH: QVQLQQSGAELARPGASVKMSCKASGYTFTSYTMHWVKQRPGQGLEWIGYINPTSDYTNYNQKFKDKATLTADKSSSTAYMQLSSLTSEDSAVYFCASEGGFLYYFDYWGQGTTLTVSS
VL: DVLMTQTPLSLPVSLGDQASISCRSSQSIVHSNGNTYLEWYLQKPGQSPKLLIYKVSNRFSGVPDRFSGSGSGTDFTLKISRVEAEDLGVYYCFQGSHVPYTFGGGTKLEIKR
**Q.** Which results are given for B1?
**A.** binding [1]: no binding (tested: 10 µg of CaTrx1 coated); binding [2]: no binding (tested: 100 nM)
